Test [1] concerns the target Calcium/calmodulin-dependent protein kinase type II subunit gamma (Homo sapiens) (UniProt Q13555). The note with it: at 1 µM.
The target is the same in test [2]. Conditions: at 10 µM; call rule not given here.
Test [3] concerns the target Homeodomain-interacting protein kinase 1 (Homo sapiens) (UniProt Q86Z02). Conditions: at 10 µM.
The target in test [4] is Mitogen-activated protein kinase kinase kinase 9 (Homo sapiens) (UniProt P80192). The note with it: at 1 µM.
Test [5] concerns the target Serine/threonine-protein kinase VRK2 (Homo sapiens) (UniProt Q86Y07). The note with it: at 1 µM.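 Note: remaining VRK2 kinase activity expressed as percent of uninhibited control, measured in MOPS buffer at pH 7.0 containing EDTA.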
For test [6], the target named is Protein kinase C gamma type (Homo sapiens) (UniProt P05129). The note with it: at 1 µM.

Sequences of proteins named here, by UniProt entry; tags and fusion partners are left off. A change or cut given only in a name is not applied to a line headed by its entry.
UniProt Q13555: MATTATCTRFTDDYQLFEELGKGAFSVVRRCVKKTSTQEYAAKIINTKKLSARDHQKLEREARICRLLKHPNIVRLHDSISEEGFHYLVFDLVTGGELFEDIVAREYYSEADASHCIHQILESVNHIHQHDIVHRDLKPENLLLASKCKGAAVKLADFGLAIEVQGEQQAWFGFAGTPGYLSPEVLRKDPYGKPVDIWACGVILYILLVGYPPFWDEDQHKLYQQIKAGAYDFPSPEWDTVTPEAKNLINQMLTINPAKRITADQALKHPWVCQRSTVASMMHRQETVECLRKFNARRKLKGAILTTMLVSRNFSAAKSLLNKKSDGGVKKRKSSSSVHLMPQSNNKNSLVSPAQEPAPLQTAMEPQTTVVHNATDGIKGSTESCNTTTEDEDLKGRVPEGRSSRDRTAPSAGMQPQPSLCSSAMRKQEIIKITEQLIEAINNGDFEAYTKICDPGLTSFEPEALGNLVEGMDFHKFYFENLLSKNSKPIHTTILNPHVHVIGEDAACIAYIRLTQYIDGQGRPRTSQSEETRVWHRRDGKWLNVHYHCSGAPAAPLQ
UniProt Q86Z02: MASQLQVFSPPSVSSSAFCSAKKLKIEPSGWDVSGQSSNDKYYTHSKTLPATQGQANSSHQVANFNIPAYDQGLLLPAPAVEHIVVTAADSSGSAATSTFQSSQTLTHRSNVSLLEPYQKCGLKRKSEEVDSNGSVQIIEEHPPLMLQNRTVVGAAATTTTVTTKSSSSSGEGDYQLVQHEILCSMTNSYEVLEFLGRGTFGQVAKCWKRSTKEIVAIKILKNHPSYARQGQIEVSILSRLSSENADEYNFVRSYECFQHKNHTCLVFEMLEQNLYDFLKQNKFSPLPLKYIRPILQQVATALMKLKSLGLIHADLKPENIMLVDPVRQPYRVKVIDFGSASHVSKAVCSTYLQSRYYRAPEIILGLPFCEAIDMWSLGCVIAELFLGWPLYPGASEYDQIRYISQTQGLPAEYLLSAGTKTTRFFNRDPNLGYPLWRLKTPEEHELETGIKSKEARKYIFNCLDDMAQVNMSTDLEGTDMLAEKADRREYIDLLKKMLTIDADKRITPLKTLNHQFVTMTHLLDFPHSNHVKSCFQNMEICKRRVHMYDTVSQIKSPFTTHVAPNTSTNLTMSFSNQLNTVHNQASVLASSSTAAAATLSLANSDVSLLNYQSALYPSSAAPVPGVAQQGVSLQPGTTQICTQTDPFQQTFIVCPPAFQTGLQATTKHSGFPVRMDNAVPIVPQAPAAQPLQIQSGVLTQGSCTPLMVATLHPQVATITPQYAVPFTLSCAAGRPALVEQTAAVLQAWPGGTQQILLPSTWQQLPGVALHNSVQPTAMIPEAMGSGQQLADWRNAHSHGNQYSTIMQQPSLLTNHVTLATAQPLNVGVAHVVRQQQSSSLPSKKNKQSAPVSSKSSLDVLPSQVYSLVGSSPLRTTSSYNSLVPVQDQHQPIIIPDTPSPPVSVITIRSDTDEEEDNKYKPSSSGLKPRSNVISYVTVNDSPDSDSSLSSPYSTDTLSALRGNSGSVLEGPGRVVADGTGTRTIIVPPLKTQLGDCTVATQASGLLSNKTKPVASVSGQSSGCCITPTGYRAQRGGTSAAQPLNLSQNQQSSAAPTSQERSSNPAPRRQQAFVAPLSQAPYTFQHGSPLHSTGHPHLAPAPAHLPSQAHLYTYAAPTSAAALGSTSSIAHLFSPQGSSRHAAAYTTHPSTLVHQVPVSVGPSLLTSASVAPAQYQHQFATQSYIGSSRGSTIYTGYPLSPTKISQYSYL
UniProt P80192: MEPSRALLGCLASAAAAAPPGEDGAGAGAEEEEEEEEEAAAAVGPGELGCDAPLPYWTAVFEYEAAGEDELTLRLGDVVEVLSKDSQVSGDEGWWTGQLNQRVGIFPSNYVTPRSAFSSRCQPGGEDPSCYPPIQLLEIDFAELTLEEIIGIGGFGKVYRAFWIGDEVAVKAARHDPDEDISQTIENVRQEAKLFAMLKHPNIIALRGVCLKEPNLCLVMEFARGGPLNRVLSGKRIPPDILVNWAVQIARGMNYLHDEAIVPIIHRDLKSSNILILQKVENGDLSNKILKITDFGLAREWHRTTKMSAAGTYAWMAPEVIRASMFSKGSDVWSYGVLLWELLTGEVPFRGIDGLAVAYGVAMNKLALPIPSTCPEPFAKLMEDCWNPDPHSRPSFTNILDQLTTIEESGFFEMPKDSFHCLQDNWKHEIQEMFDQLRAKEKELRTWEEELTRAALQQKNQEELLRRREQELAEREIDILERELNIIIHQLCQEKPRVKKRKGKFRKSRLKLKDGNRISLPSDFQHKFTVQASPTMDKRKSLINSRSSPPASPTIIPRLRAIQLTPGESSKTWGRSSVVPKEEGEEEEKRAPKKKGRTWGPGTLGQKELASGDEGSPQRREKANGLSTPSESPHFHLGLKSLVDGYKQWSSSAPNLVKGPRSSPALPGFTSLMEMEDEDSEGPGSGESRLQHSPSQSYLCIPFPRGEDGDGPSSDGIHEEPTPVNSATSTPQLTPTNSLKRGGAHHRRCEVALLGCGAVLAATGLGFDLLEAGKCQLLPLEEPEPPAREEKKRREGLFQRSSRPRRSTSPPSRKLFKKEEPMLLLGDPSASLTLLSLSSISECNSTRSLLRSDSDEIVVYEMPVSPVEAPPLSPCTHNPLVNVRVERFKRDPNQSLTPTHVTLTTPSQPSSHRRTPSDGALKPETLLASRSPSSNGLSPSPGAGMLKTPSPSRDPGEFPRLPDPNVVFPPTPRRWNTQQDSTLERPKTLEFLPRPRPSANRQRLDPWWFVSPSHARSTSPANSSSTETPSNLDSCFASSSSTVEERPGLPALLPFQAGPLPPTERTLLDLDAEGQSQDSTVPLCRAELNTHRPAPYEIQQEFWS
UniProt Q86Y07: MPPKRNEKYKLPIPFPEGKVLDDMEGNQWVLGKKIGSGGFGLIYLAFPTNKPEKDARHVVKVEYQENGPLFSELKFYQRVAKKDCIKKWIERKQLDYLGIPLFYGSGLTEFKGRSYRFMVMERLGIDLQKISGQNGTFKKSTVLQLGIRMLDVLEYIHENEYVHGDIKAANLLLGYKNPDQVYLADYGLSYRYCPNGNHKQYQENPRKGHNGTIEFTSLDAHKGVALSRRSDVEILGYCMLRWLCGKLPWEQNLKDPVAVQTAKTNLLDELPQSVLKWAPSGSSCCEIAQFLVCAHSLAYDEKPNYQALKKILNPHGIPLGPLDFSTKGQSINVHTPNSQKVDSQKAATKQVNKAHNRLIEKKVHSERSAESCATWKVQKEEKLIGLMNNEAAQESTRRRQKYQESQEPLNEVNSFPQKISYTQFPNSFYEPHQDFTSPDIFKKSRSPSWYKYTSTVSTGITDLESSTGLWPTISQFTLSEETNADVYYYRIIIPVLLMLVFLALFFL

SMILES strings stand for the structures. The entries are a selection whose mix differs from that of the whole data set.

Consider `O=[N+]([O-])c1ccc(-c2nc(-c3ccc(F)cc3)c(-c3ccncc3)[nH]2)cc1`, for which the residual activity in test [1] was 106%; in test [2], 106%; in test [3], 101%; in test [4] it was 105%; in test [5], inactive: 102%; in test [6], 104%.

The values above are taken from ChEMBL document CHEMBL2218924, “A broad activity screen in support of a chemogenomic map for kinase signalling research and drug discovery” (Biochem J, 2013).
